Experimental data reported in patent US20210161851A1, “COMBINATION THERAPY OF LYMPHOMA” (Deutsches Krebsforschungszentrum, priority 2019, published 2021).
Counter-ions that a name gives are not always drawn. At least one structure is not confirmed: it was looked up by name or label, or the drawing left a doubt.

Tested on: Bcl-2
Test: Western blot of Bcl-2 family protein levels upon NFκB inhibition
Assay type: cell-based, human
Settings: J16, HH and SeAx cells
Excerpt: ABT-199, ABT-263 and the mouse antibody against human Bcl-2 were obtained from Santa Cruz Biotechnology. DMF and monomethyl fumarate (MMF) were purchased from Sigma-Aldrich. Caspase-3 and cleaved-Caspase-3 antibodies came from Cell Signaling Technology, Ki-67 antibodies from Novacastra. Primary CD4+ T cells were isolated from heparinized whole blood and treated as indicated (Nicolay et al. (2016), Blood 128(6):805-815). Cell lines were obtained from ATCC (HH, J16) or generously donated by Drs. Gniadecki and Pless from Bispebjerg Hospital Copenhagen, Denmark and Dr. Kaltoft, Aarhus University Denmark (SeAx) or Prof. Eichmuiller from DKFZ Heidelberg, Germany (MyLa), and cultured as described (Nikolay et al, ibd.)
1.3 Cell Death Assays, Quantitative Reverse Transcript (qRT) PCR, Western Blot were Performed as According to Standard Methods.

COC(=O)/C=C/C(=O)O [MMF, monomethyl fumarate]
protein levels of Bcl-2 or other anti-apoptotic Bcl-2 family members like Mcl-1: no influence
